Holding throughout (assay type): in vivo, Mus musculus (Swiss Albino)
The test system of one assay is TNF alpha. The assay can be described thus: Brain biomarker ELISA, scopolamine induced dementia. The following applies: mice. From the text: (§1) Brain was dissected into two portions
A general note: In an ELISA, binding on a coated surface is turned into a signal by an enzyme label.

The test system of assay [1] is Brain NGF (Nerve Growth Factor). The assay is described as above.
From the text: as §1

For assay [2], the system named is Cerebral Cortex and Hippocampus. The assay can be described thus: Brain histopathology (H&E), scopolamine induced dementia. The following applies: G3: 2.5 mg/kg p.o. qdx14, score 0 normal to 4 diffused neuronal injury. How it is done:
Mouse brains were collected after humane sacrifice and fixed in 10% neutral buffered formalin. Then, the brain tissue was trimmed, processed and embedded in paraffin. 5 Micron sections were prepared in slide as a specimen for hematoxylin-eosin (H&E) staining. The hippocampal lesions were assessed microscopically at 100× magnification.
Detailed histological investigation was performed H&E stained brain tissues. Scoring was given according to the neuronal damage. […] The grading criteria for Histopathology score was: Normal or no injury—0; Rare neuronal injury (<5 clusters)—1; Occasional neuronal injury (5-15 clusters)—2; Frequent neuronal injury (>15 clusters)—3; Diffused neuronal injury-4.

In the next assay the test system is Swiss albino mice. The assay can be described thus: Passive avoidance test, scopolamine induced dementia. The following applies: for Mean Transfer Latency Time: G3: 2.5 mg/kg p.o. qdx14, scopolamine 2.5 mg/kg i.p., hydrochloride. How it is done: Required amount of recombinant lectin protein having SEQ ID NO: 1 was diluted in sterile Tris Buffered Saline (TBS) to achieve desired final concentration, i.e 0.1 mg/mL, 0.05 mg/mL, 0.025 mg/mL, at the doses of 0.5 mg/kg, 0.25 mg/kg and 0.125 mg/kg respectively. Formulation was prepared fresh daily.
TBS buffer and 0.5% CMC were used as a vehicle for preparation of test item, recombinant Lectin having SEQ ID NO: 1 and reference item formulation, respectively Male Mus musculus (Swiss Albino) aged between 8-10 weeks procured from GENTOX Bio services Pvt Ltd, Hyderabad. Animals were classified into 6 groups and acclimatized for two weeks. Animals were identified by cage labelling and tail marking and were randomized on the basis of their body weight.
Healthy male Swiss albino mice (n=48) were selected and randomized based on body weight (n=8 per Group) into 6 groups as mentioned in table no-1. The control group G1 was treated intravenously with vehicle daily till the experiment completion. Group G2 was considered as negative control and treated with vehicle. […] Group G4, G5 &G6 animals were treated with the test item recombinant lectin protein having SEQ ID NO: 1 at the dose of 0.5 mg/kg, 0.25 mg/kg and 0.125 mg/kg, respectively. All the test items were given intravenously (i.v) daily at the dose volume of 5 ml/kg for 14 Days. The body weight was recorded daily throughout the experimental period. […] One hour after the last dose of test items (on Day 14) all the animals were injected with scopolamine hydrobromide at the dose of 2.5 mg/kg, i.p., except the normal control group G1. Passive avoidance test was conducted 30 min after scopolamine injection. […]
For the training trial, the mice were initially placed in the illuminated chamber. […] The latency times once the mice entered from light compartment to the dark compartment was recorded using in-build timer. A test trial was performed 24 h following the training trial, and latency times to re-enter the dark chamber was measured up to 5 min

Molecules are shown by their SMILES. Where a name gives a salt, the structure may show the parent alone.

Regarding `COc1cc2c(cc1OC)C(=O)C(CC1CCN(Cc3ccccc3)CC1)C2` (stereo not drawn) [Donepezil hydrochloride, reference compound], the “brain TNF-alpha Mean” value in the assay on TNF alpha (G3: 2.5 mg/kg p.o. qdx14, scopolamine 2.5 mg/kg i.p.) came to 155.81 pg/mL. Further, in the assay with TNF alpha (positive control group, donepezil and scopolamine), the “level of TNF-α (brain)” value was 156 µg/mL. Moreover, the “brain nerve growth factor (NGF) Mean” value in assay [1] (G3: 2.5 mg/kg p.o. qdx14, scopolamine 2.5 mg/kg i.p., mice) came to 57 pg/mL. Moreover, the “level of NGF (brain)” value in assay [1] (Positive control group, scopolamine treated mice) stood at 57 µg/mL. In assay [2], the “Histopathology (Mean score) Cerebral Cortex Cortex” value is listed as 0, the “Histopathology (Mean score) Cerebral Cortex Meninges” value stood at 0, the “Histopathology (Mean score) Hippocampus CA1” value came out at 0 and the “Histopathology (Mean score) Hippocampus CA3” value was 1.33. Besides, the “Histopathology (Mean score) Hippocampus DG” value in assay [2] is on record as 0. Also, in the assay on Swiss albino mice (G3: 2.5 mg/kg p.o. qdx14, compared with G2 (scopolamine)), the “% increase in Transfer Latency Time” value amounted to 48.5%. Moreover, the “Mean Transfer Latency Time” value in the assay on Swiss albino mice is 110.61 s. Moreover, in the assay with Swiss albino mice (listed as Donepezil), the “Mean Transfer Latency Time” value was determined as 110.61 ± 7.02 s.

These data come from patent US20240398899A1 (priority 2021, published 2024).
